Results from US9517222B2, “Method for the treatment of senile dementia of the Alzheimer's type” (Phenomenome Discoveries Inc., priority 2007, dated 2016).

Key:
[1] = Serum ethanolamine phospholipid ratios to PtdEt 16:0/18:0 (M01) in human cohorts
[2] = Serum ethanolamine phospholipid levels in human cohorts (dementia severity, post-mortem pathology, age) by flow-injection MS/MS
[3] = serum, females, post mortem SDAT
[4] = serum, females, post mortem control

With CCCCCCCC/C=C\CCCCCCCC(=O)OC(COCCCCCCCCCCCCCCCC)COP(=O)(O)OCCN (centres unmarked) [Metabolite M05, Plasmanyl 16:0/18:1] the “Ratio of ethanolamine phospholipid ratios to M01 between cohorts” value (from here on “Ratio … to M01 between cohorts”) ([1]; AD, All to CN, Male) was 0.840, the “Ratio … to M01 between cohorts” value ([1]; ADAS 5-19 to CN, Male) was 0.858 and the “Ratio … to M01 between cohorts” value ([1]; ADAS 20-39 to CN, Male) was 0.841. The “Ratio … to M01 between cohorts” value ([1]; ADAS 40-70 to CN, Male) was 0.798, the “Average serum ethanolamine phospholipid ratio to M01, Mean” value ([1]; Cognitive Normal, Male, serum) was 0.106 and the “Average serum ethanolamine phospholipid ratio to M01, Mean” value ([1]; SDAT, ADAS 5-19, Male, serum) was 0.091. For the same compound, the “Average serum ethanolamine phospholipid ratio to M01, Mean” value ([1]; SDAT, ADAS 20-39, Male, serum) was 0.089, the “Average serum ethanolamine phospholipid ratio to M01, Mean” value ([1]; SDAT, ADAS 40-70, Male, serum) was 0.085 and the “Average serum ethanolamine phospholipid ratio to M01, Mean” value ([1]; SDAT_all, Male, serum) was 0.089. The “Ethanolamine Phospholipid Ratio to M01, Mean, Age Ctl, 30-39, Female” value ([1]; human serum, females aged 30-39) was 0.112, the “Ethanolamine Phospholipid Ratio to M01, Mean, Age Ctl, 40-49, Female” value ([1]; human serum, females aged 40-49) was 0.118 and the “Ethanolamine Phospholipid Ratio to M01, Mean, Age Ctl, 50-59, Female” value ([1]; human serum, females aged 50-59) was 0.105. For the same compound, the “Ratio of Ethanolamine Phospholipid Ratio to M01, 50-59 vs. 40-49, Female” value ([1]; human serum, females aged 50-59 vs. females aged 40-49) was 0.892, the “Ethanolamine Phospholipid Ratio to M01, Mean, Age Ctl, 60-69, Female” value ([1]; human serum, females aged 60-69) was 0.085 and the “Ratio of Ethanolamine Phospholipid Ratio to M01, 60-69 vs. 40-49, Female” value ([1]; human serum, females aged 60-69 vs. females aged 40-49) was 0.721. For the same compound, the “Ethanolamine Phospholipid Ratio to M01, Mean, Age Ctl, 70+_Female” value ([1]; human serum, females aged 70+) was 0.089, the “Ratio of Ethanolamine Phospholipid Ratio to M01, 70+ vs. 40-49, Female” value ([1]; human serum, females aged 70+ vs. females aged 40-49) was 0.758 and the “Ratio of Ethanolamine Phospholipid Ratio to M01, 50-59 vs. 40-49, Male” value ([1]; human serum, males aged 50-59 vs. males aged 40-49) was 0.984. For the same compound, the “Ratio of Ethanolamine Phospholipid Ratio to M01, 60-69 vs. 40-49, Male” value ([1]; human serum, males aged 60-69 vs. males aged 40-49) was 0.884, the “Ratio of Ethanolamine Phospholipid Ratio to M01, 70+ vs. 40-49, Male” value ([1]; human serum, males aged 70+ vs. males aged 40-49) was 0.863 and the “Ratio of ethanolamine phospholipid ratio to M01, ADAS 5-19 to CN, Female” value ([1]; serum, females, ADAS 5-19 vs cognitive normal) was 0.989. The “Ratio of ethanolamine phospholipid ratio to M01, ADAS 20-39 to 5-19, Female” value ([1]; serum, females, ADAS 20-39 vs ADAS 5-19) was 0.972, the “Ratio of ethanolamine phospholipid ratio to M01, ADAS 20-39 to CN, Female” value ([1]; serum, females, ADAS 20-39 vs cognitive normal) was 0.962 and the “Ratio of ethanolamine phospholipid ratio to M01, ADAS 40-70 to 5-19, Female” value ([1]; serum, females, ADAS 40-70 vs ADAS 5-19) was 0.889. The “Ratio of ethanolamine phospholipid ratio to M01, ADAS 40-70 to 20-39, Female” value ([1]; serum, females, ADAS 40-70 vs ADAS 20-39) was 0.914, the “Ratio of ethanolamine phospholipid ratio to M01, ADAS 40-70 to CN, Female” value ([1]; serum, females, ADAS 40-70 vs cognitive normal) was 0.879 and the “Ethanolamine phospholipid ratio to M01, Mean, SDAT, ADAS 5-19, Female” value ([1]; serum, females, SDAT ADAS 5-19) was 0.091. The “Ethanolamine phospholipid ratio to M01, Mean, SDAT, ADAS 20-39, Female” value ([1]; serum, females, SDAT ADAS 20-39) was 0.088, the “Ethanolamine phospholipid ratio to M01, Mean, SDAT, ADAS 40-70, Female” value ([1]; serum, females, SDAT ADAS 40-70) was 0.081 and the “Ratio of ethanolamine phospholipid ratio to M01, AD, All to CN, Female” value ([1]; serum, females, all AD vs cognitive normal) was 0.941. For the same compound, the “Ethanolamine phospholipid ratio to M01, Mean, SDAT_all Female” value ([1]; serum, females, all SDAT) was 0.086, the “Ratio of ethanolamine phospholipid ratio to M01, Autopsy AD vs. Control, Female” value ([1]; serum, females, autopsy AD vs post mortem control) was 0.809 and the “Ethanolamine phospholipid ratio to M01, Mean, Cognitive Normal, Female” value ([1]; serum, females, cognitive normal) was 0.092. The “Ethanolamine phospholipid ratio to M01, Mean, Post Mortem SDAT Female” value [1, 3] was 0.032, the “Ethanolamine phospholipid ratio to M01, Mean, Post Mortem Ctl, Female” value [1, 4] was 0.040 and the “Ratio of ethanolamine phospholipid ratio to M01, ADAS 20-39 to 5-19, Male” value ([1]; serum, males, SDAT ADAS 20-39 vs ADAS 5-19) was 0.980. The “Ratio of ethanolamine phospholipid ratio to M01, ADAS 40-70 to 5-19, Male” value ([1]; serum, males, SDAT ADAS 40-70 vs ADAS 5-19) was 0.930, the “Ratio of ethanolamine phospholipid ratio to M01, ADAS 40-70 to 20-39, Male” value ([1]; serum, males, SDAT ADAS 40-70 vs ADAS 20-39) was 0.948 and the “Ethanolamine phospholipid ratio to M01, Mean, Age Ctl, 30-39, Male” value ([1]; serum, males, age control 30-39) was 0.113. For the same compound, the “Ethanolamine phospholipid ratio to M01, Mean, Age Ctl, 40-49, Male” value ([1]; serum, males, age control 40-49) was 0.102, the “Ethanolamine phospholipid ratio to M01, Mean, Age Ctl, 50-59, Male” value ([1]; serum, males, age control 50-59) was 0.101 and the “Ethanolamine phospholipid ratio to M01, Mean, Age Ctl, 60-69, Male” value ([1]; serum, males, age control 60-69) was 0.091. The “Ethanolamine phospholipid ratio to M01, Mean, Age Ctl, 70+_Male” value ([1]; serum, males, age control 70+) was 0.088, the “Ethanolamine phospholipid ratio to M01, Mean, Post Mortem SDAT Male” value ([1]; serum, males, post mortem SDAT) was 0.029 and the “Ratio of ethanolamine phospholipid ratio to M01, SDAT vs Control (post mortem, males)” value ([1]; serum, males, post mortem SDAT vs post mortem control) was 0.607. The “Ethanolamine phospholipid ratio to M01, Mean, Post Mortem Ctl, Male” value ([1]; serum, males, post mortem control) was 0.048, the “Ratio of serum levels” value ([2]; AD, All to CN, Male) was 0.882 and the “Ratio of serum levels” value ([2]; ADAS 5-19 to CN, Male) was 0.896. For the same compound, the “Ratio of serum levels” value ([2]; ADAS 20-39 to 5-19, Male) was 0.966, the “Ratio of serum levels” value ([2]; ADAS 20-39 to CN, Male) was 0.865 and the “Ratio of serum levels” value ([2]; ADAS 40-70 to 5-19, Male) was 0.933. The “Ratio of serum levels” value ([2]; ADAS 40-70 to 20-39, Male) was 0.966, the “Ratio of serum levels” value ([2]; ADAS 40-70 to CN, Male) was 0.836 and the “Serum level, Mean” value ([2]; Cognitive Normal, Female) was 0.011. For the same compound, the “Average serum level, Mean” value ([2]; Cognitive Normal, Male) was 0.012, the “Serum level, Mean” value ([2]; Post Mortem Ctl, Male) was 0.006 and the “Serum level, Mean” value ([2]; Post Mortem SDAT Male) was 0.004. The “Ratio of serum levels” value ([2]; Post mortem SDAT vs Control, Male) was 0.479, the “Serum level, Mean” value ([2]; SDAT, ADAS 5-19, Female) was 0.010 and the “Average serum level, Mean” value ([2]; SDAT, ADAS 5-19, Male) was 0.011. For the same compound, the “Serum level, Mean” value ([2]; SDAT, ADAS 20-39, Female) was 0.009, the “Average serum level, Mean” value ([2]; SDAT, ADAS 20-39, Male) was 0.010 and the “Serum level, Mean” value ([2]; SDAT, ADAS 40-70, Female) was 0.009. For the same compound, the “Average serum level, Mean” value ([2]; SDAT, ADAS 40-70, Male) was 0.010, the “Serum level, Mean” value ([2]; SDAT_all, Female) was 0.009 and the “Average serum level, Mean” value ([2]; SDAT_all, Male) was 0.010. For the same compound, the “Ratio, ADAS 5-19 to CN, Female” value ([2]; serum level ratio, females, ADAS 5-19 vs CN) was 0.925, the “Ratio, ADAS 20-39 to 5-19, Female” value ([2]; serum level ratio, females, ADAS 20-39 vs ADAS 5-19) was 0.967 and the “Ratio, ADAS 20-39 to CN, Female” value ([2]; serum level ratio, females, ADAS 20-39 vs CN) was 0.895. For the same compound, the “Ratio, ADAS 40-70 to 5-19, Female” value ([2]; serum level ratio, females, ADAS 40-70 vs ADAS 5-19) was 0.936, the “Ratio, ADAS 40-70 to 20-39, Female” value ([2]; serum level ratio, females, ADAS 40-70 vs ADAS 20-39) was 0.968 and the “Ratio, ADAS 40-70 to CN, Female” value ([2]; serum level ratio, females, ADAS 40-70 vs CN) was 0.867. The “Ratio, 50-59 vs. 40-49, Female” value ([2]; serum level ratio, females, age 50-59 vs 40-49) was 0.811, the “Ratio, 60-69 vs. 40-49, Female” value ([2]; serum level ratio, females, age 60-69 vs 40-49) was 0.798 and the “Ratio, 70+ vs. 40-49, Female” value ([2]; serum level ratio, females, age 70+ vs 40-49) was 0.832. For the same compound, the “Ratio, AD, All to CN, Female” value ([2]; serum level ratio, females, all AD vs cognitively normal) was 0.893, the “Ratio, Autopsy AD vs. Control, Female” value ([2]; serum level ratio, females, autopsy AD vs control) was 0.508 and the “Ratio, 50-59 vs. 40-49, Male” value ([2]; serum level ratio, males, age 50-59 vs 40-49) was 0.953. The “Ratio, 60-69 vs. 40-49, Male” value ([2]; serum level ratio, males, age 60-69 vs 40-49) was 1.011, the “Ratio, 70+ vs. 40-49, Male” value ([2]; serum level ratio, males, age 70+ vs 40-49) was 0.979 and the “Mean serum level, Age Ctl, 30-39, Female” value ([2]; serum, females, age 30-39) was 0.011. The “Mean serum level, Age Ctl, 40-49, Female” value ([2]; serum, females, age 40-49) was 0.013, the “Mean serum level, Age Ctl, 50-59, Female” value ([2]; serum, females, age 50-59) was 0.010 and the “Mean serum level, Age Ctl, 60-69, Female” value ([2]; serum, females, age 60-69) was 0.010. For the same compound, the “Mean serum level, Age Ctl, 70+, Female” value ([2]; serum, females, age 70+) was 0.011, the “Mean serum level, Post Mortem SDAT, Female” value [2, 3] was 0.003 and the “Mean serum level, Post Mortem Ctl, Female” value [2, 4] was 0.007. The “Mean serum level, Age Ctl, 30-39, Male” value ([2]; serum, males, age 30-39) was 0.014, the “Mean serum level, Age Ctl, 40-49, Male” value ([2]; serum, males, age 40-49) was 0.012 and the “Mean serum level, Age Ctl, 50-59, Male” value ([2]; serum, males, age 50-59) was 0.011. The “Mean serum level, Age Ctl, 60-69, Male” value ([2]; serum, males, age 60-69) was 0.012 and the “Mean serum level, Age Ctl, 70+, Male” value ([2]; serum, males, age 70+) was 0.011.

A unit is not stated for every read-out.
